Assay results: patent US10220064B2, “Carbohydrate composition extracted from Panax ginseng and its use in the treatment of ischemic conditions” (Macau University of Science and Technology, priority 2016, dated 2019)
For at least one compound, name, drawing or mass did not settle the structure.

Tested on: H/R-induced H9c2 cells
Assay: Impact of survival pathway inhibitors on AP1-induced cardio-protection (MVS assay)
Details: with 200 μg/mL AP1; mifepristone 100 μM, tamoxifen 100 μM, L-NAME 10 μM, LY294002 40 μM, Akt inhibitor IV 10 μM, U0126 40 μM (FIG. 11)

With O=c1cc(N2CCOCC2)oc2c(-c3ccccc3)cccc12 [LY294002] the “effect of inhibitor on protective effects of AP1 on H/R-induced cell death” value was “abolished the protective effects of AP1”.
